These results are taken from publication PMC12752606, “METTL10‐Mediated PIAS3 Methylation Links Purine Metabolism to Gastric Cancer Progression” (Advanced Science, 2025).

The chains behind the UniProt entries cited, without tags or fusion partners. Where a name states a change or a piece, a line headed by the entry shows the natural chain unless it says otherwise. A line that says so, or that is headed by a name, gives the form on record, which may keep a tag or linker.
UniProt O75030: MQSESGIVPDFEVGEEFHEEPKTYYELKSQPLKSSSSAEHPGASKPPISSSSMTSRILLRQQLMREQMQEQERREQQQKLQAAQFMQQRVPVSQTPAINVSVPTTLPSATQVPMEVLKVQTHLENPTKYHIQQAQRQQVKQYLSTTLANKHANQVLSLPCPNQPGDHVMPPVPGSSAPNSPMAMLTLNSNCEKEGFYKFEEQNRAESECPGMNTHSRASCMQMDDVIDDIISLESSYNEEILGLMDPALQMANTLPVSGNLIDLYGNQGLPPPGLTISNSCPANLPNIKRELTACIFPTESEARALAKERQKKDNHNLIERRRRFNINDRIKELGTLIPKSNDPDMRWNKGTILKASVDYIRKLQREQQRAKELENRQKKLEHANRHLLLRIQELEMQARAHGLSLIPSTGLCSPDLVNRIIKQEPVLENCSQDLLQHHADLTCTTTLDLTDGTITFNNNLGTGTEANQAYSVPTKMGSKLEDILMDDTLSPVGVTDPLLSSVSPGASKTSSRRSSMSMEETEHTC
Myc-METTL10 (Q5JPI9-1, form named): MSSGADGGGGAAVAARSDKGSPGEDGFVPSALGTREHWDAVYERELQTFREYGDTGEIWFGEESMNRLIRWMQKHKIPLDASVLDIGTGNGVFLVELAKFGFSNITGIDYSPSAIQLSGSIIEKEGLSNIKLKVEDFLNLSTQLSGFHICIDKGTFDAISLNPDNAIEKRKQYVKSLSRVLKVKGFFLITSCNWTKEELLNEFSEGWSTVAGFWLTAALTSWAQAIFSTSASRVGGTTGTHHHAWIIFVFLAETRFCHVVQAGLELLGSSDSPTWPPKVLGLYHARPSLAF

For one test, the target named is T1, Flag-PIAS3 (UniProt Q9Y6X2).
T1 sequence: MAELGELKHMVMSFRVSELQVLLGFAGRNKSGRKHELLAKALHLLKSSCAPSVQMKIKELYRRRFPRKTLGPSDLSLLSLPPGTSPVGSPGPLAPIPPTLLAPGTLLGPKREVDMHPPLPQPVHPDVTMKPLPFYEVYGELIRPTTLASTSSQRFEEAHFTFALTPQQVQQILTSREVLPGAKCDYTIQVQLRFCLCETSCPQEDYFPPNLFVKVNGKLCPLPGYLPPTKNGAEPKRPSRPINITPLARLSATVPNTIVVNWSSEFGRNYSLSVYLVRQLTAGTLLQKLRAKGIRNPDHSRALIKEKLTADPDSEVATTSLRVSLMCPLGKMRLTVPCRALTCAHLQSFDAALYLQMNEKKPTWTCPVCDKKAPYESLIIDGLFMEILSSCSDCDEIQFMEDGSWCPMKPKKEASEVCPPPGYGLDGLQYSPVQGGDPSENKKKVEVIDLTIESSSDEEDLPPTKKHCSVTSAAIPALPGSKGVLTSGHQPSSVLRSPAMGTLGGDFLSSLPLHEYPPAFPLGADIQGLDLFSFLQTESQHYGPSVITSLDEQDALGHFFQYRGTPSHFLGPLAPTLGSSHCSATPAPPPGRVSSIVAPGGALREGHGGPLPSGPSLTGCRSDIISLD
Description: co-IP; HEK293T co-transfected with Myc-METTL10, HA-MITF and Flag-PIAS3 (GC cells too, Figure S3e); with or without METTL10 overexpressed.

The target in test [1] is T2, PIAS3, endogenous (human (endogenous in MKN45, AGS, HEK293T)) (UniProt Q9Y6X2).
T2 sequence: T1 sequence
Description: co-IP; MKN45 and AGS cells with METTL10 knocked down (Figure S3h) or overexpressed (Figure S3i).

These are yes or no findings as the source states them, for the method shown. Binding seen in cells or lysates may run through a third protein. Some results given as binding are weak or reduced against the parent protein; the word gives no strength. For part of these data: Sequences can lack the tags named with a protein.

Consider “HA-MITF (microphthalmia-associated transcription factor) (from UniProt O75030 1-526)”, for which the binding result with Flag-PIAS3 is given as “binds”.
On to “MITF in MKN45 and AGS cells (from UniProt O75030 1-526)”, for which the binding result in test [1] was “binds”.
With “Myc-METTL10 (from UniProt Q5JPI9-1 1-291) (enzyme)”, the binding entry with Flag-PIAS3 is listed as “binds”.
